Sequences of proteins named here, by UniProt entry; tags and fusion partners are left off. A change or cut given only in a name is not applied to a line headed by its entry. A line that says so, or that is headed by a name, gives the form on record, which may keep a tag or linker. Residues count along the entry.
FLAG-SLC3A2 WTseq (P08195, residues 66-630): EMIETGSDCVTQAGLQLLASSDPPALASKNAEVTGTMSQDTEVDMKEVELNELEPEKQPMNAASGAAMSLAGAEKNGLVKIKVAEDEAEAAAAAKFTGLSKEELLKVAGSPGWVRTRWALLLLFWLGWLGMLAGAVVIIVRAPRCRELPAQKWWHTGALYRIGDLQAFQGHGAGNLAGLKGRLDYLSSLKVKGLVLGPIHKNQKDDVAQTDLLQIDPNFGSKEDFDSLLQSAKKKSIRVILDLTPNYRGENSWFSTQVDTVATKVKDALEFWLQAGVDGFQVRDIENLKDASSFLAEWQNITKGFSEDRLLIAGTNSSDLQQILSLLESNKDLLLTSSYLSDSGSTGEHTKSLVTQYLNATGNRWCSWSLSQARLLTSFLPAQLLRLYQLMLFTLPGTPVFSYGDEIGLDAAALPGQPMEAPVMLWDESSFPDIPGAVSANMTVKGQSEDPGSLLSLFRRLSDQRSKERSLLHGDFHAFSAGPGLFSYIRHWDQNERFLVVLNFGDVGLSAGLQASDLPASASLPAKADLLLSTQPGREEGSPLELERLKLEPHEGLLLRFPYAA
FLAG-SLC3A2 A273N (P08195, form named): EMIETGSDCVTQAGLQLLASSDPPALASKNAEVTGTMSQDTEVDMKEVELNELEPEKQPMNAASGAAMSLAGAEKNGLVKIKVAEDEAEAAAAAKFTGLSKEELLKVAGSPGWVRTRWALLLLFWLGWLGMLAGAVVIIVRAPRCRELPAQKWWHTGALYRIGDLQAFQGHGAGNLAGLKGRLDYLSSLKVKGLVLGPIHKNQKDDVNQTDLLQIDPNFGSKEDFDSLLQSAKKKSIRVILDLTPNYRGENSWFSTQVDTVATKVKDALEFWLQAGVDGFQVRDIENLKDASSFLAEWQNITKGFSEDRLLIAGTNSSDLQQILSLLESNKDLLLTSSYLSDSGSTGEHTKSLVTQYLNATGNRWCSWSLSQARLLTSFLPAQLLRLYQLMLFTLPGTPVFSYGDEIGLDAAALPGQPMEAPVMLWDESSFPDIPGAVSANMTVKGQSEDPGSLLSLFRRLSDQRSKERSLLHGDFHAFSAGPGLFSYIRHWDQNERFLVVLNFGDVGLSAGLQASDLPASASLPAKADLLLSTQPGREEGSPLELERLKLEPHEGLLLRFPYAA
FLAG-SLC3A2 A273N + D355N (P08195, form named): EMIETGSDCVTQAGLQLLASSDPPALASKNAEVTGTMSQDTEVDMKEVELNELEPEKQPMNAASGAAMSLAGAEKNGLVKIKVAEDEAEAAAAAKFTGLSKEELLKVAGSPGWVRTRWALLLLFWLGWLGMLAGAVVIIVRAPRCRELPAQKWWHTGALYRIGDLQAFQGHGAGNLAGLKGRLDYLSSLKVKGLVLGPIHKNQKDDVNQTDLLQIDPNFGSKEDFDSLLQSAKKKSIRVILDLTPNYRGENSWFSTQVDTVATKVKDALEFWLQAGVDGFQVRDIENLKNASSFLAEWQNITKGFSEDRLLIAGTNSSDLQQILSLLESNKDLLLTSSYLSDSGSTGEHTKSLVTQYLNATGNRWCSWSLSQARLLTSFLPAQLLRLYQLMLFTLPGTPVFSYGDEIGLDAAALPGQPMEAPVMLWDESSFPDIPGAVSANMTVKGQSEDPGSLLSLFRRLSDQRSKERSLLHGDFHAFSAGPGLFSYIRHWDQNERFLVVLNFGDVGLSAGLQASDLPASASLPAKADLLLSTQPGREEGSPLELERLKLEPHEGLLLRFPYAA

In publication PMC10698284:

How the values were obtained:
Assay in all cases: affinity purification with mass spectrometry; anti-FLAG M2 agarose, 4 h at 4 °C, 1 mg lysate (0.5% NP40, 50 mM HEPES pH 8.0, 100 mM KCl, 1 mM EDTA, 10% glycerol) of HeLa Flp-In T-REx SLC3A2 KO cells with dox-induced FLAG-SLC3A2 WTseq or site variants; on-bead trypsin digest, DDA and SWATH; control: dox-treated SLC3A2 KO cells; in some samples 10 μM fluvastatin or 250 ng/ml swainsonine for the final 24 h
[1] = biological target: FLAG-SLC3A2 A273N (human) (UniProt P08195)
[2] = biological target: FLAG-SLC3A2 A273N + D355N (human) (UniProt P08195)
[3] = biological target: FLAG-SLC3A2 WTseq (human) (UniProt P08195)

Measured: binding

B1: SLC39A1 (protein, UniProt Q9NY26 1-324)
chain: MGPWGEPELLVWRPEAVASEPPVPVGLEVKLGALVLLLVLTLLCSLVPICVLRRPGANHEGSASRQKALSLVSCFAGGVFLATCLLDLLPDYLAAIDEALAALHVTLQFPLQEFILAMGFFLVLVMEQITLAYKEQSGPSPLEETRALLGTVNGGPQHWHDGPGVPQASGAPATPSALRACVLVFSLALHSVFEGLAVGLQRDRARAMELCLALLLHKGILAVSLSLRLLQSHLRAQVVAGCGILFSCMTPLGIGLGAALAESAGPLHQLAQSVLEGMAAGTFLYITFLEILPQELASSEQRILKVILLLAGFALLTGLLFIQI
binds: all assays above

B2: Zn++ transporter SLC30A1 (protein, UniProt Q9Y6M5 1-507)
chain: MGCWGRNRGRLLCMLALTFMFMVLEVVVSRVTSSLAMLSDSFHMLSDVLALVVALVAERFARRTHATQKNTFGWIRAEVMGALVNAIFLTGLCFAILLEAIERFIEPHEMQQPLVVLGVGVAGLLVNVLGLCLFHHHSGFSQDSGHGHSHGGHGHGHGLPKGPRVKSTRPGSSDINVAPGEQGPDQEETNTLVANTSNSNGLKLDPADPENPRSGDTVEVQVNGNLVREPDHMELEEDRAGQLNMRGVFLHVLGDALGSVIVVVNALVFYFSWKGCSEGDFCVNPCFPDPCKAFVEIINSTHASVYEAGPCWVLYLDPTLCVVMVCILLYTTYPLLKESALILLQTVPKQIDIRNLIKELRNVEGVEEVHELHVWQLAGSRIIATAHIKCEDPTSYMEVAKTIKDVFHNHGIHATTIQPEFASVGSKSSVVPCELACRTQCALKQCCGTLPQAPSGKDAEKTPAVSISCLELSNNLEKKPRRTKAENIPAVVIEIKNMPNKQPESSL
binds: all assays above

B3: SLC1A4 (protein, UniProt P43007 1-532)
chain: MEKSNETNGYLDSAQAGPAAGPGAPGTAAGRARRCAGFLRRQALVLLTVSGVLAGAGLGAALRGLSLSRTQVTYLAFPGEMLLRMLRMIILPLVVCSLVSGAASLDASCLGRLGGIAVAYFGLTTLSASALAVALAFIIKPGSGAQTLQSSDLGLEDSGPPPVPKETVDSFLDLARNLFPSNLVVAAFRTYATDYKVVTQNSSSGNVTHEKIPIGTEIEGMNILGLVLFALVLGVALKKLGSEGEDLIRFFNSLNEATMVLVSWIMWYVPVGIMFLVGSKIVEMKDIIVLVTSLGKYIFASILGHVIHGGIVLPLIYFVFTRKNPFRFLLGLLAPFATAFATCSSSATLPSMMKCIEENNGVDKRISRFILPIGATVNMDGAAIFQCVAAVFIAQLNNVELNAGQIFTILVTATASSVGAAGVPAGGVLTIAIILEAIGLPTHDLPLILAVDWIVDRTTTVVNVEGDALGAGILHHLNQKATKKGEQELAEVKVEAIPNCKSEEETSPLVTHQNPAGPVASAPELESKESVL
binds: all assays above

B4: SLC38A1 (protein, UniProt Q9H2H9 1-487)
chain: MMHFKSGLELTELQNMTVPEDDNISNDSNDFTEVENGQINSKFISDRESRRSLTNSHLEKKKCDEYIPGTTSLGMSVFNLSNAIMGSGILGLAFALANTGILLFLVLLTSVTLLSIYSINLLLICSKETGCMVYEKLGEQVFGTTGKFVIFGATSLQNTGAMLSYLFIVKNELPSAIKFLMGKEETFSAWYVDGRVLVVIVTFGIILPLCLLKNLGYLGYTSGFSLSCMVFFLIVVIYKKFQIPCIVPELNSTISANSTNADTCTPKYVTFNSKTVYALPTIAFAFVCHPSVLPIYSELKDRSQKKMQMVSNISFFAMFVMYFLTAIFGYLTFYDNVQSDLLHKYQSKDDILILTVRLAVIVAVILTVPVLFFTVRSSLFELAKKTKFNLCRHTVVTCILLVVINLLVIFIPSMKDIFGVVGVTSANMLIFILPSSLYLKITDQDGDKGTQRIWAALFLGLGVLFSLVSIPLVIYDWACSSSSDEGH
binds: all assays above

B5: SLC38A2 (protein, UniProt Q96QD8 1-506)
chain: MKKAEMGRFSISPDEDSSSYSSNSDFNYSYPTKQAALKSHYADVDPENQNFLLESNLGKKKYETEFHPGTTSFGMSVFNLSNAIVGSGILGLSYAMANTGIALFIILLTFVSIFSLYSVHLLLKTANEGGSLLYEQLGYKAFGLVGKLAASGSITMQNIGAMSSYLFIVKYELPLVIQALTNIEDKTGLWYLNGNYLVLLVSLVVILPLSLFRNLGYLGYTSGLSLLCMVFFLIVVICKKFQVPCPVEAALIINETINTTLTQPTALVPALSHNVTENDSCRPHYFIFNSQTVYAVPILIFSFVCHPAVLPIYEELKDRSRRRMMNVSKISFFAMFLMYLLAALFGYLTFYEHVESELLHTYSSILGTDILLLIVRLAVLMAVTLTVPVVIFPIRSSVTHLLCASKDFSWWRHSLITVSILAFTNLLVIFVPTIRDIFGFIGASAASMLIFILPSAFYIKLVKKEPMKSVQKIGALFFLLSGVLVMTGSMALIVLDWVHNAPGGGH
binds: all assays above

These are yes or no findings as the source states them, for the method shown. In cells and extracts the contact can be indirect. These calls come from enrichment with a bait or labelling near it, and not all partners need be listed.
